Test results from patent publication US20250042956.
For at least one entry, the source does not settle the construct or the ends of the probe. Results from cells or extracts need not show a direct contact. Where a protein sequence is shown, tags need not be part of it.

Columns and labels:
Test in all cases: binding assay
Details in all cases: ChIP-seq peak motif enrichment (Homer), sequences similar to TTTAGGG; in vivo; protein in cells
[1] = biological target: T1, TRB1 (Arabidopsis thaliana) (UniProt Q8VWK4)
T1 sequence: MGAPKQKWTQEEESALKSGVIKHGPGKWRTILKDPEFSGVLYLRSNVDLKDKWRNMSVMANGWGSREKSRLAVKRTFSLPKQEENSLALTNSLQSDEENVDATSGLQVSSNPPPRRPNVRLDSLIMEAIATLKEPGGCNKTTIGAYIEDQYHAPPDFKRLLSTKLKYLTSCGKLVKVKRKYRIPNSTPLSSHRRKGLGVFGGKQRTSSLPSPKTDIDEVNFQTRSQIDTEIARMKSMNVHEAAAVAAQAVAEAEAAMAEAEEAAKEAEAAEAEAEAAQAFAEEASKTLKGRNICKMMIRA

[2] = biological target: T2, TRB2 (Arabidopsis thaliana) (UniProt Q9FJW5)
T2 sequence: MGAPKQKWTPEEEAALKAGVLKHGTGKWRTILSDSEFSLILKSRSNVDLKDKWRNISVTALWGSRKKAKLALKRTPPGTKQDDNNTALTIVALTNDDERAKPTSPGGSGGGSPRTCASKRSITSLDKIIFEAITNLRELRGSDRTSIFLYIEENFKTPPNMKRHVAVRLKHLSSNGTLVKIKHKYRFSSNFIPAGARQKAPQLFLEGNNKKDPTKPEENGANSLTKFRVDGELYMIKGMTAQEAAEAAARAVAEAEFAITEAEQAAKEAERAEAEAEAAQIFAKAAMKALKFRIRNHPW

[3] = biological target: T3, TRB3 (Arabidopsis thaliana) (UniProt Q9M2X3)
T3 sequence: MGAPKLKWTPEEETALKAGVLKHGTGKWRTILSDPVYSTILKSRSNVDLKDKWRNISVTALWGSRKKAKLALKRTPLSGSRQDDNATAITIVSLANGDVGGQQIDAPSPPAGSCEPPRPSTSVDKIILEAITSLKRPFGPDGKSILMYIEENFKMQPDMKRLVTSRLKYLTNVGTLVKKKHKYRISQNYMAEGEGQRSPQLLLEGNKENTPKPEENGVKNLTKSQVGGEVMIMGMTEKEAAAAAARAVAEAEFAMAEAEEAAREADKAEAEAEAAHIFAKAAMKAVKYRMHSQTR

Measured: binding result

TTTAGGG (double strand) [telobox / telomere repeat motif]
binds: [1] | [2] | [3]
